The target in assay [1] is potato 14-3-3 protein St14f (Solanum tuberosum L. (potato)). Description: NMR titration; 1H-15N HSQC of 250 µM 15N Lys-labeled St14f with 0 mM and 1 mM StFDL1 peptide; 10 mM Tris pH 7.5, 1 mM DTT, 10% D2O, 298 K, 950 MHz; both purified.
The target of assay [2] is St14f L229A W232A (Solanum tuberosum L. (potato)). Put plainly: thermal shift assay; 10 µM St14f with no and with 100 µM StFDL1 peptide; SYPRO Orange; 10 mM HEPES pH 7.5, 0.15 M NaCl; heated from 25 to 99 °C; ΔTm = melting temperature difference with and without the peptide; both purified.

These are yes or no findings as the source states them, for the method shown. For some assays here: Binding calls can cover weak binding; strength is not graded here.

Consider LNRTSTAPF (phosphothreonine (pT) at the sixth residue of the peptide, LNRTSpTAPF) [StFDL1 peptide (LNRTSpTAPF)], for which the binding result is recorded as “binds” in assay [1] and “no binding (tested: 100 µM StFDL1 peptide)” in assay [2].
